The other results are listed elsewhere or left out. The main result of the screen is listed elsewhere. These columns were measured beside it and carry no call. Compounds called inactive in the main read-out are mostly missing here. The note in brackets gives the kind of curve behind each potency; many fits are weak.
Test: qHTS Assay for Identifying the Cell-Membrane Permeable IMPase Inhibitors
Conditions: CHO-M1 cells, IP1 accumulation, HTRF TR-FRET ratio; measured here: donor channel 620 nm AC50

Row | Structure (SMILES) | AC50
1 | N[C@H](C(=O)O)c1cccc(O)c1 | 0.0158 µM [falling, full curve, poor fit]
2 | Cc1ccc(N=c2ssnc2Cl)cc1 | 0.02 µM [rising, full curve, poor fit]
3 | O=S(=O)(Nc1nc2ccccc2[nH]1)c1ccc2ccccc2c1 | 2.51 µM [falling, single point]
4 | Clc1ccc(-c2csc(N3CCN(c4ccccc4)CC3)n2)cc1 | 20 µM [rising, single point]
5 | CC(C)(C)OC(=O)N1CCC[C@H]1c1nnc(SCc2ccccc2F)o1 | 5.01 µM [falling, single point]
6 | c1ccc(Sc2cnc3ccccc3n2)cc1 | 14.1 µM [rising, single point]
7 | O=C(NCCC1=CCCCC1)c1cnc2n(c1=O)CCS2 | 0.112 µM [falling, full curve, poor fit]
8 | COc1cccc(C(=O)N2CCN(C(=O)c3cccs3)CC2)c1OC | 0.794 µM [falling, partial curve]
9 | O=C(CN1CCOCC1)Nc1ccc(-c2nc3ccccc3[nH]2)cc1 | 3.98 µM [rising, single point]
10 | O=C(Nc1nnc(-c2ccccc2)o1)C1CCCCC1 | 2.82 µM [falling, single point]
11 | COc1ccc(NC(=O)CN(C)S(=O)(=O)c2ccccc2)cc1OC | 0.126 µM [rising, partial curve]
12 | CCCOc1ccc(NCC(=O)Nc2ccc(C)cc2C)cc1 | 0.501 µM [falling, full curve]
13 | Cc1c2cc(O)c(=O)cc-2oc2cc(O)c(O)cc12 | 12.6 µM [falling, partial curve]
14 | CCOC(=O)c1nnn(C(CC)C(=O)Nc2ccc(F)cc2)c1C(=O)OCC (centres undefined) | 1.12 µM [falling, full curve, poor fit]
15 | O=S(=O)(c1cccs1)N1CCc2ccccc21 | 0.00794 µM [falling, full curve, poor fit]
16 | O=C(NCc1cccs1)C1CCN(S(=O)(=O)c2cccs2)CC1 | 0.794 µM [falling, partial curve, poor fit]
17 | CC1(C)CCc2nc(SCc3ccccc3)c(C#N)cc2C1 | 31.6 µM [falling, single point]
18 | CCN(CC)CCNC(=O)c1ccccc1C(=O)c1ncc[nH]1 | 5.01 µM [falling, partial curve]
19 | CC12CN3CCN(CC(C3)C1(O)CN1CCCCC1)C2 (centres undefined) | 31.6 µM [falling, single point]
20 | CC(=O)N(c1ccc(Cl)cc1)c1c[nH]c2ccccc12 | 0.02 µM [rising, full curve, poor fit]
21 | O=C(COC(=O)c1cc(-c2ccccc2Cl)nc2ccccc12)Nc1ncc(C(F)(F)F)cc1Cl | 3.16 µM [rising, single point]
22 | CCOc1ccc(OCC)c(N=c2oc3c(C)ncc(CO)c3cc2C(N)=O)c1 | 3.16 µM [rising, single point]

Compounds listed so far containing an NH in an aromatic ring:
Row | Structure (SMILES) | AC50
3 | O=S(=O)(Nc1nc2ccccc2[nH]1)c1ccc2ccccc2c1 | 2.51 µM [falling, single point]
9 | O=C(CN1CCOCC1)Nc1ccc(-c2nc3ccccc3[nH]2)cc1 | 3.98 µM [rising, single point]
18 | CCN(CC)CCNC(=O)c1ccccc1C(=O)c1ncc[nH]1 | 5.01 µM [falling, partial curve]
20 | CC(=O)N(c1ccc(Cl)cc1)c1c[nH]c2ccccc12 | 0.02 µM [rising, full curve, poor fit]

Next compounds follow:

Row | Structure (SMILES) | AC50
23 | Cc1ccccc1C(=O)Nc1c2c(nc3ccccc13)CCCC2 | 22.4 µM [rising, single point]
24 | CN(C)CCNc1c2c(c(C#N)c3nc4ccccc4n13)CCCC2 | 3.98 µM [falling, full curve, poor fit]
25 | N#Cc1cc(Oc2cccnc2)c(Oc2cccnc2)cc1C#N | 0.126 µM [falling, full curve, poor fit]
26 | Cc1cc(C)n(-c2nnc(SCC(=O)NC3CCCC3)c3ccccc23)n1 | 31.6 µM [falling, single point]
27 | CC(C)CC(C(=O)NC(=O)NCc1ccccc1)N1C(=O)c2ccccc2C1=O (centres undefined) | 0.02 µM [rising, full curve, poor fit]
28 | CCCN1CCC2(CC1)C(C#N)=C(N)Oc1c2sc2nc(C)cc(C)c12 | 0.2 µM [falling, full curve, poor fit]
29 | CCN(CC)S(=O)(=O)c1ccc2c(c1)nc(CCC(=O)Nc1ccccc1Cc1ccccc1)n2CC | 0.794 µM [falling, full curve]
30 | Nc1nnnn1/N=C/c1ccco1 | 3.98 µM [falling, single point]
31 | Cc1sc2nc(C3CC3)nc(SCC(=O)N3c4ccccc4CC3C)c2c1C (centres undefined) | 0.794 µM [rising, full curve, poor fit]
32 | COc1cc(/C=N/Nc2nn3cnnc3c3ccccc23)ccc1O | 12.6 µM [falling, single point]
33 | COCCn1nnnc1C(c1cccs1)N1CCN(c2cccc(C(F)(F)F)c2)CC1 (centres undefined) | 10 µM [rising, partial curve]
34 | COc1ccc(C(=O)Nc2ccc(CN3CCOCC3)cc2)cc1 | 20 µM [falling, single point]
35 | CCN(Cc1ccccc1)Cc1c(O)ccc2c(=O)c(-c3ccc(Cl)cc3)c(C(F)(F)F)oc12 | 28.2 µM [rising, single point]
36 | CCN(CC)C(=O)CCNS(=O)(=O)c1ccc(C)cc1 | 31.6 µM [rising, single point]
37 | CCOC(=O)c1[nH]cnc1C(=O)Nc1ccccn1 | 3.98 µM [rising, partial curve, poor fit]
38 | O=C(C1=NN[C@@H]2C(=O)N(c3ccccc3C(F)(F)F)C(=O)[C@H]12)C(c1ccccc1)c1ccccc1 | 35.5 µM [rising, single point]
39 | O=C(Nc1ccccc1-c1nnc(SCc2ccccc2Cl)o1)c1ccccc1 | 25.1 µM [rising, single point]
40 | O=C(NCc1ccccc1Cl)c1ccc(Nc2nc3ccccc3n3nnnc23)cc1 | 5.01 µM [falling, partial curve, poor fit]
41 | CCOc1ccc(NC(=O)C(=O)NCC2CCCN2CC)cc1 (centres undefined) | 6.31 µM [rising, single point]
42 | O=C(CSc1ncnc2c1oc1ccccc12)NCc1ccco1 | 10 µM [rising, partial curve]
43 | COC(=O)c1cc(Br)c(=O)n(Cc2ccc(OC)c(OC)c2)c1 | 6.31 µM [falling, single point]
44 | Cc1ccc(C(=O)NNC(=O)c2ccc(SCC3CCCO3)c([N+](=O)[O-])c2)cc1 (centres undefined) | 0.02 µM [rising, full curve, poor fit]
